The source of these data is article PMC3216068.

Sequences of proteins named here, by UniProt entry; tags and fusion partners are left off. A change or cut given only in a name is not applied to a line headed by its entry.
UniProt P61956: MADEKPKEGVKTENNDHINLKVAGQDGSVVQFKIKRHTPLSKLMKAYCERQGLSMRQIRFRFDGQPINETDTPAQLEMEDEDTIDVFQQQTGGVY
UniProt Q02724: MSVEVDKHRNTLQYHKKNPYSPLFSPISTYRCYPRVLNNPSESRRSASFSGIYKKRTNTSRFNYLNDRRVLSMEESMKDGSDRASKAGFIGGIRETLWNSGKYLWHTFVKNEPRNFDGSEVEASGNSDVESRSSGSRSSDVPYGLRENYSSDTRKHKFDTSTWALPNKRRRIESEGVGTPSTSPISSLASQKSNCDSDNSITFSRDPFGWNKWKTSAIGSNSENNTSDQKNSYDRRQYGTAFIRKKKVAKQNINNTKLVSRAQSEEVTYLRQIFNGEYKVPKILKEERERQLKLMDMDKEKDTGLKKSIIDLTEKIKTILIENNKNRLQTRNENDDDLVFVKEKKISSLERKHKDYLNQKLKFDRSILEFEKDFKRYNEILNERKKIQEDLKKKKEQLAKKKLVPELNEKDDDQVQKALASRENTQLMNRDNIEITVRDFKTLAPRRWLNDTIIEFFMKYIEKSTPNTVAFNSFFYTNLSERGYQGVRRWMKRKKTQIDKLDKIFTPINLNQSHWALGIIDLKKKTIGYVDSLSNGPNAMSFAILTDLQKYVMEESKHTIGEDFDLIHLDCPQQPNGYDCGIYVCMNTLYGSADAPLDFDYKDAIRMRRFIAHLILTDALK

These are yes or no findings as the source states them, for the method shown. For some of these results: Binding calls can cover weak binding; strength is not graded here. For some of these results: In cells and extracts the contact can be indirect.

The target in experiment [1] is Smt3 fused to the Gal4 DNA-binding domain (S. cerevisiae) [SUMO: Q12306]. The experiment can be described thus: two-hybrid; Gal4-AD fusions of ULP1 mutants in pOAD, Gal4-BD fusion of SMT3 in pOBD, AH109 reporter strain; scored on dropout media lacking adenine (Figure 5).
Experiment [2] addresses SUMO2 immobilized on agarose beads (human) (UniProt P61956). In words: pull-down; SUMO2 immobilised on agarose beads (Boston Biochem) incubated with nondenaturing yeast whole-cell extracts expressing GFP-tagged Ulp1(3) constructs; anti-GFP Western blot; only the target purified.

Turning to “Ulp1(3)^(ts C580S), Gal4 activation domain fusion (from UniProt Q02724) (domain or fragment)”, the binding entry in experiment [1] is “binds”.

In the case of “GFP-tagged Ulp1(3)^(C580S)-ΔSBS (from UniProt Q02724) (domain or fragment)”, the binding entry in experiment [2] was “no binding”.

For “Ulp1(3)^(D451N C580S), Gal4 activation domain fusion (from UniProt Q02724) (domain or fragment)”, the binding entry in experiment [1] was “no binding”.

For the substance “Ulp1(3)^(C580S), Gal4 activation domain fusion (from UniProt Q02724) (domain or fragment)”, in experiment [1], the binding result is given as “binds weakly”.
